# Results reported in PubChem BioAssay AID504467 (National Center for Advancing Translational Sciences (NCATS), 2011).
# About 7,700 (2.3%) of roughly 330,000 compounds were called active. The shares of active, inactive and inconclusive entries below differ from those in the screen. Calls come from the whole dose curve; as a rule, active = well fitted inhibition curve with a large enough effect; inconclusive = small, poorly fitted or top-dose-only effect, or effect the other way; inactive = flat fitted curve, though single readings scatter. Potencies beside an inconclusive call are fits to weak or partial responses and may not hold up.
# Experiment: qHTS screen for small molecules that inhibit ELG1-dependent DNA repair in human embryonic kidney (HEK293T) cells expressing luciferase-tagged ELG1; note: nearly all actives have a fitted effect of over 55% in size
# Details: HEK293T ELG1-luciferase reporter, luminescence, 16 h, DNA damage induced by 5-fluorouridine; series mostly up to 46.1 µM
# Summary of the method: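 HEK293T cells expressing luciferase-tagged ELG1 (2,000/well) received 5-Fluorouridine plus compound or DMSO for 16 hr at 37 °C. Luciferase was read by ONE-Glo luminescence after 30 min at room temperature.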
# Potency is the fitted concentration of half-maximal effect.
row,SMILES,Potency
1,CCN(Cc1ccncc1)S(=O)(=O)c1ccc(C(C)=O)cc1,active: 6.51 µM
2,Cc1cc(NC(=O)c2cncc(Br)c2)ccc1NC(=O)c1cc2ccccc2o1,"inconclusive: 23.1 µM [inhibitor, single point]"
3,CN(Cc1ccccc1)C(=O)COc1ccc(C(C)(C)C)cc1,"inconclusive: 23.1 µM [activator, single point]"
4,O=c1[nH]c(C2CCN(S(=O)(=O)c3ccccc3)CC2)nc2c1nnn2Cc1c(F)cccc1Cl,inactive
5,COc1ccc(-c2cc(=O)oc3cc(OCC(=O)NCc4ccccn4)ccc23)cc1,"inconclusive: 23.1 µM [inhibitor, single point]"
6,Cc1cc(OCC(O)CN2CCN(c3ccccn3)CC2)cc(C)c1Cl (stereo unspecified),inactive
7,C/C(N)=C(/C#N)C(=O)CSc1nnc(Nc2cccc(C)c2)s1,"inconclusive: 9.2 µM [activator, partial curve]"
8,COc1cc(OC)cc(C(=O)NC(=S)Nc2ccc(Cl)c(C(=O)O)c2)c1,inactive
9,CCCNC(=O)C(Cc1ccccc1)NC(=O)c1ccc(-c2ccccc2)cc1 (stereo unspecified),"inconclusive: 20.6 µM [activator, partial curve]"
10,COc1ccc(C2c3cc(OC)c(OC)cc3CCN2C(=O)c2cccc([N+](=O)[O-])c2)cc1OC (stereo unspecified),"inconclusive: 13 µM [inhibitor, partial curve]"
11,O=C(COc1ccccc1)Nc1cc(C(F)(F)F)ccc1N1CCCC1,"inconclusive: 8.2 µM [inhibitor, partial curve, poor fit]"
12,CC(O)CNCCNCc1c(OCc2ccccc2)ccc2ccccc12 (stereo unspecified),inactive
13,CCOc1ccc(S(=O)(=O)NCC2CCCO2)c2cccnc12 (stereo unspecified),"inconclusive: 4.11 µM [inhibitor, single point]"
14,CCc1oc(C(=O)OC)cc1CSC(=N)N,inactive
15,Cc1ccc(SCCC(=O)N(C)C)cc1,"inconclusive: 14.6 µM [activator, partial curve]"
16,Cc1ccc(-c2csc(NC(=O)C3CC(=O)N(Cc4ccco4)C3)n2)cc1 (stereo unspecified),inactive
17,C/C(=N\NC(=O)Cc1csc(N2CCOCC2)n1)c1ccc(Cl)c(Cl)c1,"inconclusive: 29.1 µM [inhibitor, single point]"
18,O=C(NCCc1ccccc1)C1CCC(=O)N(CCCN2CCCC2=O)C1 (stereo unspecified),inactive
19,Cc1ccc(S(=O)(=O)N2CCN(C(=O)Cc3sc(C)nc3-c3ccc(F)cc3)CC2)c(C)c1,"inconclusive: 25.9 µM [inhibitor, single point]"
20,COc1ccc2c(c1)O[C@H](c1ccc3c(c1)OCO3)[C@@H](OC(=O)N[C@H]1CCCc3ccccc31)C2=O,inactive
21,CCC(=O)Nc1ccc(N2CCN(Cc3ccccc3)CC2)cc1,inactive
22,CCC(=O)N1c2ccccc2NC2=C(C(=O)CCC2)C1c1ccc(N(C)C)cc1 (stereo unspecified),"inconclusive: 14.6 µM [activator, partial curve, poor fit]"
23,Cc1nc2ccc(NC(=O)c3ccc([N+](=O)[O-])cc3)cc2[nH]1,"inconclusive: 9.2 µM [inhibitor, partial curve]"
24,O=C(NCC(=O)N1CCC2(CC1)NCCc1[nH]cnc12)c1ccc(F)cc1,inactive

row,SMILES,Potency
1,Cc1nc(C)c(-c2ccc(SCc3ccccc3C)nn2)s1,"inconclusive: 14.6 µM [activator, partial curve]"
2,CN(CC(=O)Nc1ccc(F)cc1)C(=O)c1ccccc1Sc1ccccc1C#N,"inconclusive: 4.11 µM [inhibitor, single point]"
3,CC(=O)CCC(=O)c1ccc2ccccc2c1,"inconclusive: 13 µM [activator, partial curve]"
4,O=C(CSc1ccccn1)Nc1ccccc1F,"inconclusive: 14.6 µM [activator, partial curve]"
5,O=C1CSc2ccc(C(=O)Nc3cccc(S(=O)(=O)Nc4ccc(Br)cc4)c3)cc2N1,active: 13 µM
6,CCOc1ccc(CCNC(=O)COC(=O)c2c(OC)cccc2OC)cc1OCC,inactive
7,C=CCNc1nc(Nc2ccc([N+](=O)[O-])cc2)nc(N2CCCC2)n1,"inconclusive: 23.1 µM [inhibitor, partial curve, poor fit]"
8,Cn1cc(SCC(=O)N2CCOCC2)c2ccccc21,"inconclusive: 29.1 µM [activator, single point]"
9,N/C(Cc1cccs1)=N\OC(=O)COc1ccc(Cl)cc1Cl,"inconclusive: 23.1 µM [activator, partial curve]"
10,C/C(=N\NC(=O)c1nn(C)c(C)c1Br)c1ccc(NC(=O)c2ccc(C)s2)cc1,"inconclusive: 23.1 µM [activator, partial curve]"
11,CCOC(=O)Cn1nnnc1CN(Cc1ccc(OC)cc1)Cc1cc2cc(C)ccc2[nH]c1=O,active: 18.4 µM
12,COC(=O)c1ccccc1NC(=O)CN(C)S(=O)(=O)c1ccc(OC)c(C)c1,"inconclusive: 25.9 µM [inhibitor, single point]"
13,N/C(Cn1cncn1)=N\OC(=O)c1ccc(Cl)cc1,inactive
14,CC(=O)Nc1cccc(NC(=O)c2cccc(S(=O)(=O)N3CCN(Cc4ccccc4)CC3)c2)c1,"inconclusive: 1.83 µM [inhibitor, single point]"
15,CCOC(=O)C1CCN(C(=O)CCc2c(C)nc3ncnn3c2C)CC1,inactive
16,Cc1cc(C)n(CCNC(=O)c2ccco2)n1,inactive
17,CCn1c(=O)c(C(=O)CN2CCN(S(=O)(=O)c3cc(C)ccc3C)CC2)c(N)n(Cc2ccccc2)c1=O,active: 6.51 µM
18,N#Cc1c(-c2ccccc2)nc(SCC(=O)Nc2nnc(C(F)(F)F)s2)[nH]c1=O,inactive
19,CC(=O)c1cccc(OCc2cc(C(=O)N(C)Cc3ccc(C)o3)no2)c1,"inconclusive: 20.6 µM [activator, partial curve]"
20,Cc1nc2c(C(=O)N3CCCCC3)cnn2c(C)c1Cc1ccccc1F,"inconclusive: 7.31 µM [activator, partial curve]"
21,Clc1ccc(Cc2nnc(-c3ccccc3Br)o2)cc1,"inconclusive: 23.1 µM [activator, single point]"
22,CC(C)c1nc2sc3ccccc3c(=O)c2c(=O)n1Cc1ccccc1,"inconclusive: 7.3 µM [inhibitor, partial curve, poor fit]"
23,Cc1c(OC(C)C(=O)NCC(O)c2ccccc2)ccc2c3c(c(=O)oc12)CCCC3 (stereo unspecified),active: 14.6 µM
24,CC(C)OC(=O)CSc1nnc(-c2ccc(Cl)cc2Cl)o1,inactive

# Reprinted at random: four compounds from above
row,SMILES,Potency
4,O=C(CSc1ccccn1)Nc1ccccc1F,"inconclusive: 14.6 µM [activator, partial curve]"
19,CC(=O)c1cccc(OCc2cc(C(=O)N(C)Cc3ccc(C)o3)no2)c1,"inconclusive: 20.6 µM [activator, partial curve]"
15,CCOC(=O)C1CCN(C(=O)CCc2c(C)nc3ncnn3c2C)CC1,inactive
2,CN(CC(=O)Nc1ccc(F)cc1)C(=O)c1ccccc1Sc1ccccc1C#N,"inconclusive: 4.11 µM [inhibitor, single point]"

# Additional records follow.

row,SMILES,Potency
1,C/C(=N\NC(=O)c1ccccc1)c1ccc(N2CCCCC2)cc1,"inconclusive: 5.8 µM [activator, partial curve]"
2,Cc1c(C(=O)N2CCc3ccccc3C2)oc2ccc(S(=O)(=O)N3CC(C)CC(C)C3)cc12 (stereo unspecified),"inconclusive: 23.1 µM [inhibitor, partial curve]"
3,CCOC(=O)c1c(C)[nH]c2c1-c1ccccc1C(=O)C2=O,active: 2.91 µM
4,COc1ccccc1-n1c(C)nc2cc(C(=O)NCC3CCCO3)ccc21 (stereo unspecified),"inconclusive: 25.9 µM [activator, partial curve, poor fit]"
5,O=C1CC(c2cccs2)Sc2nc3ccccc3n21 (stereo unspecified),"inconclusive: 16.4 µM [activator, partial curve]"
6,COc1ccc(N(CC(=O)NCCSCc2cccc(Cl)c2)S(C)(=O)=O)cc1Cl,"inconclusive: 0.501 µM [inhibitor, full curve, poor fit]"
7,O=c1c(-c2ccnn2-c2ccccc2F)cnc2n1CCS2,"inconclusive: 18.4 µM [activator, partial curve, poor fit]"
8,COc1cccc(NC(=O)c2cc(CN3C(=O)c4ccccc4C3=O)ccc2OC)c1,"inconclusive: 16.4 µM [inhibitor, single point]"
9,Cc1cc(/C=C2\SC(N)=NC2=O)c(C)n1-c1ccccc1,"inconclusive: 6.51 µM [activator, partial curve]"
10,S=C(NCc1ccco1)Nc1ccc(Cl)c(Cl)c1,inactive
11,CCOC(=O)N1CC=C2C(C#N)=C(N)C(C#N)(C#N)[C@H](c3ccc(OC(C)C)c(OCC)c3)[C@H]2C1,active: 13 µM
12,COC(=O)c1cc(NC(=O)C2(S(=O)(=O)c3ccc(C)cc3)CC2)cc(C(=O)OC)c1,"inconclusive: 14.6 µM [inhibitor, partial curve]"
13,COc1ccc(S(=O)(=O)Cc2ccc(C(=O)N3CCN(c4ccc(Cl)cc4)CC3)o2)cc1,"inconclusive: 20.6 µM [inhibitor, single point]"
14,C=CCN(c1ccc(C(=O)Nc2ccc(NC(C)=O)cc2)cc1)S(C)(=O)=O,inactive
15,COc1ccc2cc(CN(CCO)C(=O)c3ccc(Br)cc3)c(=O)[nH]c2c1,"inconclusive: 20.6 µM [inhibitor, partial curve]"
16,Cc1nn(Cc2ccc(Cl)cc2Cl)c(C)c1NC(=O)c1nn(C)cc1Cl,inactive
17,CNCCCOc1ccc(C)cc1Br,"inconclusive: 29.1 µM [inhibitor, single point]"
18,Cc1nn(-c2ccc(C(=O)NCC(c3ccco3)N3CCCC3)cc2)c(C)c1Cl (stereo unspecified),inactive
19,O=C(NCCO)C(O)C(O)C(=O)NCCO (stereo unspecified),inactive
20,Cc1sc2ncnc(NCC3COc4ccccc4O3)c2c1C (stereo unspecified),"inconclusive: 0.461 µM [inhibitor, partial curve, poor fit]"
21,CCN(C[C@H]1N[C@@](Cc2ccccc2)(C(=O)OC)[C@H]2C(=O)N(Cc3ccccc3)C(=O)[C@@H]12)C(=O)C1CCCCC1,inactive
22,O=C(Nc1ccccc1F)C(=O)Nc1cccc2ccccc12,"inconclusive: 8.2 µM [activator, partial curve]"
23,CS(=O)c1nc(-c2ccc(Br)cc2)cc(-c2ccccc2)c1C#N (stereo unspecified),"inconclusive: 29.1 µM [inhibitor, single point]"

# Part of the list above in order of molar mass, ascending:
row,SMILES,Potency
17,CNCCCOc1ccc(C)cc1Br,"inconclusive: 29.1 µM [inhibitor, single point]"
14,C=CCN(c1ccc(C(=O)Nc2ccc(NC(C)=O)cc2)cc1)S(C)(=O)=O,inactive
12,COC(=O)c1cc(NC(=O)C2(S(=O)(=O)c3ccc(C)cc3)CC2)cc(C(=O)OC)c1,"inconclusive: 14.6 µM [inhibitor, partial curve]"
